# “And” between values parts separate entries of the source, which are not always exact repeats. Equal entries are not always repeated.
# Tests used:
# in vitro = in vitro ADME, human; settings: human, Caco-2
# Caco-2 cell monolayers = assay: in vitro; format: in vitro ADME, human; settings: Caco-2 monolayers, 1% HPβCD, 2 h
smiles,measurement,setting,value
"CC(C)NCC(O)COc1ccc(CC(N)=O)cc1 (stereo not shown) [Atenolol, atenolol, reference compound]",Papp A→B at 2 h,in vitro,23 ± 5 nm/s
same,efflux ratio at 120 min,in vitro,1.2
same,% Transport Absorptive direction (A–B),Caco-2 cell monolayers,2.8% and 1.3 ± 0.1%
same,% Transport Secretory direction (A–B),Caco-2 cell monolayers; secretory direction,1.4% and 1.4 ± 0.4%

# Reference: PMC5592720 (Planta medica, 2013)
